The supplement of paper PMC8326762, “A Small Molecule Inhibitor of Pex3–Pex19 Interaction Disrupts Glycosome Biogenesis and Causes Lethality in Trypanosoma brucei” (Frontiers in Cell and Developmental Biology, 2021)
Structures can show the parent of a compound that is named as a salt. This is one part of the list. Single values of this set are uncertain.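 Yeast growth was measured as optical density at 600 nm. Two-hybrid strains grew without histidine, so growth depended on Pex3–Pex19 binding. A compound was trypanosome-selective if it reduced growth of the trypanosome-pair strain by over 65% and of the human-pair strain by under 65%.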

Assays:
[1] = system: Saccharomyces cerevisiae HF7c pdr5Δ; test: general growth inhibition of yeast HF7c pdr5Δ in -Leu -Trp medium, relative to DMSO; higher = stronger general growth inhibition; conditions: 100 µM; 24 h
[2] = system: human PEX3-PEX19 interaction (yeast two-hybrid); test: growth inhibition of yeast two-hybrid strain reporting HsPex3-HsPex19 interaction, relative to DMSO; higher = stronger inhibition of human Pex3-Pex19 interaction / growth; conditions: 100 µM; 24 h; 3-aminotriazole 10 mM
[3] = system: T. brucei Pex3-Pex19 interaction (yeast two-hybrid); test: growth inhibition of yeast two-hybrid strain reporting TbPex3-TbPex19 interaction, relative to DMSO; higher = stronger inhibition of T. brucei Pex3-Pex19 interaction / growth; conditions: 100 µM; 24 h

Question: With `C[C@@H]1C(=O)NC2=Nc3cccc(Cl)c3CN21` [Quazinone] as the molecule, how does the general growth inhibition [1] read?
Answer: 44.6%

Question: And the growth inhibition [2]?
Answer: 43.2%

Question: And the growth inhibition [3]?
Answer: 62.1%

Question: Which results are given for `CCCCN(CCCC)CC(O)c1cc(Cl)cc2c1-c1ccc(Cl)cc1/C2=C/c1ccc(Cl)cc1` (stereo not given) [Lumefantrine]?
Answer: general growth inhibition [1]: 25.5%; growth inhibition [2]: 15.2%; growth inhibition [3]: 30.8%

Question: How did the general growth inhibition [1] turn out when `CC(=O)Nc1nnc(S(N)(=O)=O)s1` [Acetazolamide] was run?
Answer: 49.3%

Question: What about the growth inhibition [2] of the same molecule?
Answer: 52.9%

Question: And the growth inhibition [3]?
Answer: 60.6%

Question: With `O=C(c1ccc(OCCCc2c[nH]cn2)cc1)C1CC1` [Ciproxifan hydrochloride] as the molecule, how does the general growth inhibition [1] read?
Answer: 35.4%

Question: And the growth inhibition [2]?
Answer: 39.5%

Question: What about the growth inhibition [3] of the same molecule?
Answer: 57%

Question: With `c1ccc2c(c1)CCC[C@H]2Nc1nc2ccccc2[nH]1` [NS8593 hydrochloride] as the molecule, how does the general growth inhibition [1] read?
Answer: 37.3%

Question: What about the growth inhibition [2] of the same molecule?
Answer: 50.8%

Question: What about the growth inhibition [3] of the same molecule?
Answer: 60.2%

Question: What does the source list for `CCCNC(C)C(=O)Nc1ccccc1C` (stereo not given) [Prilocaine hydrochloride]?
Answer: general growth inhibition [1]: 55.8%; growth inhibition [2]: 49.5%; growth inhibition [3]: 69.1%

Question: Which general growth inhibition [1] does the source give for `CCN1CCCC1CNC(=O)c1cc(S(=O)(=O)CC)c(N)cc1OC` (stereo not given) [Amisulpride] here?
Answer: 57.4%

Question: What about the growth inhibition [2] of the same molecule?
Answer: 48.1%

Question: What about the growth inhibition [3] of the same molecule?
Answer: 62.8%

Question: What does the source list for `N/C(=N\C(=O)c1nc(Cl)c(N)nc1N)NCc1ccccc1` [Benzamil hydrochloride]?
Answer: general growth inhibition [1]: 29.5%; growth inhibition [2]: 34.2%; growth inhibition [3]: 57.5%

Question: What does the source list for `CC(C)OC(=O)C(C)(C)Oc1ccc(C(=O)c2ccc(Cl)cc2)cc1` [Fenofibrate]?
Answer: general growth inhibition [1]: 34.3%; growth inhibition [2]: 38.5%; growth inhibition [3]: 50.3%

Question: Which results are given for `CN(C)S(=O)(=O)c1ccc2c(c1)/C(=C/c1cc3c([nH]1)CCCC3)C(=O)N2`?
Answer: general growth inhibition [1]: 50.1%; growth inhibition [2]: 33.8%; growth inhibition [3]: 53.2%

Question: `COc1cc(C(=O)OCCCN2CCCN(CCCOC(=O)c3cc(OC)c(OC)c(OC)c3)CC2)cc(OC)c1OC` [Dilazep hydrochloride] was tested. Which general growth inhibition [1] did it give?
Answer: 37.1%

Question: What about the growth inhibition [2] of the same molecule?
Answer: 36%

Question: And the growth inhibition [3]?
Answer: 62.4%

Question: Which general growth inhibition [1] does the source give for `c1ccc(-c2ccccn2)nc1` [2,2'-Bipyridyl] here?
Answer: 22.1%

Question: And the growth inhibition [2]?
Answer: 22.4%

Question: What about the growth inhibition [3] of the same molecule?
Answer: 54.3%

Question: Which general growth inhibition [1] does the source give for `CC1COc2c(N3CCN(C)CC3)c(F)cc3c(=O)c(C(=O)O)cn1c23` (stereo not given) [Ofloxacin] here?
Answer: 48.9%

Question: What about the growth inhibition [2] of the same molecule?
Answer: 48.4%

Question: And the growth inhibition [3]?
Answer: 70.5%

Question: Which results are given for `CC(=O)O[C@]1(C(C)=O)CC[C@H]2[C@@H]3C=C(Cl)C4=CC(=O)[C@@H]5C[C@@H]5[C@]4(C)[C@H]3CC[C@@]21C` [Cyproterone acetate]?
Answer: general growth inhibition [1]: 33.5%; growth inhibition [2]: 30.1%; growth inhibition [3]: 40%

Question: Which general growth inhibition [1] does the source give for `CC1CNCCN1S(=O)(=O)c1cccc2cnccc12` (stereo not given) here?
Answer: 49.6%

Question: What about the growth inhibition [2] of the same molecule?
Answer: 48.1%

Question: And the growth inhibition [3]?
Answer: 70.2%
